The other results are listed elsewhere or left out. These are further read-outs of the screen, such as a control signal, another cell line or another target. No call is given for them. Most of these compounds were active or inconclusive in the main read-out, so they are no random draw. The note in brackets gives the kind of curve behind each potency; many fits are weak.
Assay: qHTS Assay for Lipid Storage Modulators in Drosophila S3 Cells;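 for cell number change: cells counted by Cell Tracker Red CMTPX staining in the red channel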
Conditions: BODIPY lipid droplet fluorescence, 18-24 h; for cell number change: measured here: cell count max response, cells fed with added oleic acid
Outline: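 Laser-scanning cytometry quantifies lipid droplet accumulation (500–530 nm total intensity; droplet/cell object ratio) in oleic acid-fed (400 uM added) Drosophila S3 cells treated with a concentration series. 20 uM Triacsin C defined 100% inhibition.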

[1] = measured here: cell number channel AC50, cells fed with added oleic acid
[2] = measured here: lipid fluorescence (Fed channel) AC50, cells fed with added oleic acid

Row | Compound | cell number change [%] | AC50 [1] | AC50 [2]
1 | Cc1ccc(-c2csc(NC(=O)C[n+]3cc(-c4ccc(C)cc4)n4c3CCC4)n2)cc1 | -67.3 | 23.1 µM [falling, single point] | –
2 | CCOC(=O)c1c(C)[nH]c(C(=O)CSc2nnc(-c3ccncc3)n2CC)c1C | 8.99 | – | 1.3 µM [rising, full curve]
3 | NC(=O)c1ccsc1NC(=O)COC(=O)c1ccccc1NCc1ccco1 | -26.8 | – | –
4 | COc1ccc(N2CCn3c2nc2c3c(=O)n(CCCc3ccccc3)c(=O)n2C)c(OC)c1 | -23.2 | – | 1.46 µM [rising, full curve, poor fit]
5 | Cc1c(CC(=O)N2CCC(C(N)=O)CC2)c(=O)oc2cc3c(cc12)CCC1(CCCCC1)O3 | – | – | 14.6 µM [falling, partial curve]
6 | CCN(CC)c1ccc(C=NCCc2ccc(S(N)(=O)=O)cc2)cc1 | – | – | 2.91 µM [falling, single point]
7 | COc1ccccc1-c1noc2ncnc(Nc3ccc4c(c3)OCO4)c12 | 3.24 | – | 29.1 µM [rising, single point]
8 | CCOc1cccc(C(=O)Nc2ccccc2C(=O)N2CCN(C)CC2)c1 | 0.495 | – | 29.1 µM [rising, single point]
9 | CCOC(=O)C(=CNc1ccc2c(c1)nnn2-c1ccc(Cl)cc1)C(=O)OCC | 45.3 | 0.116 µM [rising, full curve, poor fit] | –
10 | COc1ccc(CNS(=O)(=O)c2ccc3c(c2)CCN3C(=O)C2CCC2)cc1 | -5.11 | – | 20.6 µM [rising, single point]
11 | CCCn1c(N)c(C(=O)CN2CCN(S(=O)(=O)c3cccs3)CC2)c(=O)[nH]c1=O | 10.9 | – | –
12 | C=CCn1c(SCC(=O)c2[nH]c(C)c(C(=O)OC)c2C)nc2scc(-c3ccc(OC)c(OC)c3)c2c1=O | 8.94 | 6.51 µM [falling, single point] | –
13 | COC(=O)C1CCN(c2cc(Cl)nc(N)n2)CC1 | -4.56 | – | –
14 | Nc1nonc1NN=C1CCCCC1 | -4.7 | – | –
15 | CCOC(=O)N1CCN(C(=O)c2ccc(NS(=O)(=O)c3ccc(F)cc3)cc2)CC1 | – | – | 2.31 µM [rising, partial curve]
16 | COc1cc2c(cc1NC(=O)Nc1ccc(F)cc1)oc1ccccc12 | 53.1 | 32.6 µM [rising, single point] | 16.4 µM [rising, single point]

Row | Compound | cell number change [%] | AC50 [1] | AC50 [2]
17 | COc1ccc(-c2cc(C)nc3c(-c4ccccc4)cnn23)cc1 | 10.2 | 0.0206 µM [rising, full curve, poor fit] | –
18 | O=S(=O)(c1ccc(-c2csc(Nc3ccc(Br)cc3)n2)cc1)N1CCCC1 | -18.2 | – | 2.31 µM [falling, full curve]
19 | CC(C)c1c(C(=O)N/N=C/c2c[nH]c3ccccc23)nnn1-c1nonc1N | -23.3 | 2.59 µM [falling, single point] | 6.51 µM [falling, single point]
20 | CCCC(=O)Nc1cc(C)c(NC(=O)c2cccs2)cn1 | 40 | 14.6 µM [rising, partial curve, poor fit] | –
21 | CC(C)c1ccc(OCc2nc(-c3ccccn3)no2)c(Br)c1 | 33.7 | 18.4 µM [rising, single point] | –
22 | COc1ccc(S(=O)(=O)NC(Cc2cnc[nH]2)C(=O)O)cc1 (configuration not stated) | 4.04 | – | 0.731 µM [falling, full curve, poor fit]
23 | CCCCN(CC(=O)NC1CC1)S(=O)(=O)c1ccc(OCC)cc1 | 20.3 | – | 10.3 µM [rising, single point]
24 | CC(=O)c1cccc(NC(=O)N2C3CCC2CC(NC(=O)C2CC2)C3)c1 (configuration not stated) | -8.54 | – | 29.1 µM [falling, single point]
25 | Cc1c(C(=O)N2CCCC2)sc(NC(=O)c2cccc(Cl)c2)c1C#N | -19.2 | – | –
26 | COc1ccc(OCCC(=O)OCC(=O)NC(=O)NC(C)(C)C)cc1 | -5.7 | – | –
27 | CCCn1nnc2c(=O)oc3ccccc3c21 | -11.3 | – | 0.146 µM [falling, full curve, poor fit]
28 | CCCn1c2ccccc2c2cnn(CC(=O)N3CCN(C4CCCCC4)CC3)c(=O)c21 | 51.4 | 7.31 µM [rising, partial curve, poor fit] | 29.1 µM [rising, single point]
29 | COc1cc(NC(=O)CSCC(=O)Nc2cccc(C(F)(F)F)c2)c(Cl)cc1Cl | -62.1 | 25.9 µM [falling, partial curve] | 0.731 µM [falling, single point]
30 | c1ccn(-c2ncnc3sc4c(c23)CCCC4)c1 | -2.53 | – | 0.146 µM [falling, full curve]
31 | CCc1nnc(N/N=C/c2c(F)cccc2Cl)n1N | -16 | – | 20.6 µM [falling, partial curve, poor fit]

Some of these compounds in order of molecular weight, falling:
Row | Compound | cell number change [%] | AC50 [1] | AC50 [2]
19 | CC(C)c1c(C(=O)N/N=C/c2c[nH]c3ccccc23)nnn1-c1nonc1N | -23.3 | 2.59 µM [falling, single point] | 6.51 µM [falling, single point]
25 | Cc1c(C(=O)N2CCCC2)sc(NC(=O)c2cccc(Cl)c2)c1C#N | -19.2 | – | –
27 | CCCn1nnc2c(=O)oc3ccccc3c21 | -11.3 | – | 0.146 µM [falling, full curve, poor fit]

Source: PubChem BioAssay AID2685 (National Center for Advancing Translational Sciences (NCATS), 2010)
